# These are yes or no findings as the source states them, for the method shown. Some entries that bind do so weakly or less than the wild type.
# B1: 3-10H (designed binder)
# chain: GSHMVSGKIVVIGSSTGGPRSLDMIIPNLPKNFPAPIVVVQHGNYATGWTTSGTKSLAQRLDSTSELTVKEAEDGEEVKPGFVYIAPGDFHLGLKAQNGKVFFFLDKSGLDWGWWAWGVRPAVDFTLDKAAEIYKEKTIAVILTGGWESGDYTGGDGTKGAFKVKFYGGTVIAEDKETSVVFGMPKSVIEEGYADYVLPAYKIPEKLIELV
# B2: 4-9B (designed binder)
# chain: GSHMVSGKIVVIGSSTGGPRSLDMIIPNLPKNFPAPIVVVQHGWYWGGVRGEGTKSLAQRLDSTSELTVKEAEDGEEVKPGFVYIAPGDFHLGLKAQNGKVFFFLDKSGDWYWGWGDWGVRPAVDFTLDKAAEIYKEKTIAVILTGGEDYGAADGGDGTKGAFKVKFYGGTVIAEDKETSVVFGMPKSVIEEGYADYVLPAYKIPEKLIELV
# B3: 4-12B (designed binder)
# chain: GSHMVSGKIVVIGSSTGGPRSLDMIIPNLPKNFPAPIVVVQHGWERVGLRLSGTKSLAQRLDSTSELTVKEAEDGEEVKPGFVYIAPGDFHLGLKAQNGKVFFFLDKSGAWAWGNVWWGVRPAVDFTLDKAAEIYKEKTIAVILTGGAWLGETVGGDGTKGAFKVKFYGGTVIAEDKETSVVFGMPKSVIEEGYADYVLPAYKIPEKLIELV
# B4: 4-3E (designed binder)
# chain: GSHMVSGKIVVIGSSTGGPRSLDMIIPNLPKNFPAPIVVVQHGWWSWGWRGWGTKSLAQRLDSTSELTVKEAEDGEEVKPGFVYIAPGDFHLGLKAQNGKVFFFLDKSGRTDWGYEYWGVRPAVDFTLDKAAEIYKEKTIAVILTGGAWEGSAYGGDGTKGAFKVKFYGGTVIAEDKETSVVFGMPKSVIEEGYADYVLPAYKIPEKLIELV
# B5: 4-7D (designed binder)
# chain: GSHMVSGKIVVIGSSTGGPRSLDMIIPNLPKNFPAPIVVVQHGHDWSGSSGWGTKSLAQRLDSTSELTVKEAEDGEEVKPGFVYIAPGDFHLGLKAQNGKVFFFLDKSGWVSWGWTNNGVRPAVDFTLDKAAEIYKEKTIAVILTGGRYEGVLLGGDGTKGAFKVKFYGGTVIAEDKETSVVFGMPKSVIEEGYADYVLPAYKIPEKLIELV
# notes: CheBc scaffold clone from modified pQE-80L in E. coli, purified on cobalt resin, detected with anti-FLAG
# Biological target: Biotinylated human HER2 antigen comprising a portion of the HER2 extracellular domain (Acro Biosystems) (human) (UniProt P04626)
# Assay: ELISA screen of clone lysates on coated antigen, anti-FLAG-HRP
row,binding,Binder
1,binds,B1
2,binds,B2
3,binds,B3
4,binds,B4
5,binds,B5
